Data: patent US9895352B2, “Indolinone compounds and uses thereof” (Oncternal Therapeutics, Inc., priority 2014, dated 2018)
Where two headings read alike, the source gives them in different places.

Tests used:
[1] = dog, microsomes, 1 h
[2] = mouse, microsomes, 1 h
[3] = human, microsomes, 1 h
[4] = rat, microsomes, 1 h

- Remaining (NCF = 60 min) [1]: 89.6%
- Remaining (NCF = 60 min) [2]: 91.7%
- Remaining (NCF = 60 min) [3]: 92.5%
- Remaining (NCF = 60 min) [4]: 89.2%
Structure (SMILES): CCCNCC(O)COc1ccccc1C(=O)CCc1ccccc1 (stereo not shown) [Propafenone, reference compound]
